Assay results reported in US8895695B2, “Template-fixed beta-hairpin peptidomimetics with CXCR4 antagonizing activity” (priority 2003, dated 2014).

Protein sequences, listed by entry. Tags and fused reporters are not part of them.
UniProt P61073, whole entry: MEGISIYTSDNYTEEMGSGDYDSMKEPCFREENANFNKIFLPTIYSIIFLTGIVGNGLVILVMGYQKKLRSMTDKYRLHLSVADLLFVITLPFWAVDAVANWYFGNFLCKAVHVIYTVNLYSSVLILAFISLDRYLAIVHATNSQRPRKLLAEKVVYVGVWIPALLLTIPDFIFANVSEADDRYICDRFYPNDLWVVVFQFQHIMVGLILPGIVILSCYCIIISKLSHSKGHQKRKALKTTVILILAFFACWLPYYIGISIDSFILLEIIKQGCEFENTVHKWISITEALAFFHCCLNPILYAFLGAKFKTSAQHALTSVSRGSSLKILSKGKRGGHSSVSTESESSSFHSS

Target: CXCR4 (Homo sapiens, UniProt P61073)
Experiment: Ca2+-assay method 1: CXCR4-antagonizing activity
Assay type: cell-based
Set-up: expressed in transfected cells
Experimental: 2.2. Ca^2+-Assay: CXCR4-Antagonizing Activity of the Peptides.
The cells were washed free from Fura-2-AM with a platelet centrifuge and resuspended in 800 μl MSB containing 5 mM D-Glucose. The peptides to be administered were diluted to a 100 fold end concentration in MSB/0.2% PPL, and 8 μl were injected. […] Measurements were done under continuous stirring at 37° C. The signal intension was calibrated with 3 mM CaCl2/[…] lonomycin (maximal fura-2-acetoxymethylester saturation) and 10 μM MnCl2 (minimal Fura-2-acetoxymethylester saturation) and [Ca^2+]i-changes are presented in % fora-2-acetoxymethylester saturation. The rate of [Ca^2+]i-changes was calculated on the basis of the initial [Ca^2+]i-changes and plotted in dependence of chemokine concentration to obtain a sigmoidal curve and to determine the IC50 values.
Osmolarity: 310 mOsm adjusted with NaOH or HCl, adjusted with H2O or PBS.
MSB plus: 5 mM D-glucose in MSB (50 mg/50 mL).
Fura 2-acetoxymethylester: 1 mM stock solution in dimethylsulfoxide.

N=C(N)NCCC[C@@H]1NC(=O)[C@@H]2CSSC[C@H](NC(=O)[C@H](Cc3ccc4ccccc4c3)NC(=O)[C@H](CCCNC(=N)N)NC(=O)[C@H](CCCNC(=N)N)NC(=O)[C@H]3CCCN3C(=O)CNC1=O)C(=O)N[C@@H](Cc1ccc(O)cc1)C(=O)N[C@@H](CCCNC(N)=O)C(=O)N[C@@H](CCCCN)C(=O)N1CCC[C@@H]1C(=O)N1CCC[C@H]1C(=O)N[C@@H](Cc1ccc(O)cc1)C(=O)N[C@@H](CCCNC(=N)N)C(=O)N[C@@H](CCCNC(N)=O)C(=O)N2 [Ex. 51]
IC50: 1.9 nM
